From the supplement of paper PMC6411743
± gives the standard deviation of the averaged measurements. The entries are a selection whose mix differs from that of the whole data set.

By UniProt entry, the sequences of proteins in these tests, tags left out. Where a name states a change or a piece, a line headed by the entry shows the natural chain unless it says otherwise.
UniProt Q9Y3A5: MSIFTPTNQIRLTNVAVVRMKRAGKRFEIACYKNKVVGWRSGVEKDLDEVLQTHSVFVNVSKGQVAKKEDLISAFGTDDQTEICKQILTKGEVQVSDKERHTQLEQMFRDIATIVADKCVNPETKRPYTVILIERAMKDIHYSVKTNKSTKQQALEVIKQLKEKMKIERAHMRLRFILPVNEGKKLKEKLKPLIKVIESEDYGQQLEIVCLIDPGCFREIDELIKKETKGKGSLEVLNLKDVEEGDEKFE
UniProt P81877: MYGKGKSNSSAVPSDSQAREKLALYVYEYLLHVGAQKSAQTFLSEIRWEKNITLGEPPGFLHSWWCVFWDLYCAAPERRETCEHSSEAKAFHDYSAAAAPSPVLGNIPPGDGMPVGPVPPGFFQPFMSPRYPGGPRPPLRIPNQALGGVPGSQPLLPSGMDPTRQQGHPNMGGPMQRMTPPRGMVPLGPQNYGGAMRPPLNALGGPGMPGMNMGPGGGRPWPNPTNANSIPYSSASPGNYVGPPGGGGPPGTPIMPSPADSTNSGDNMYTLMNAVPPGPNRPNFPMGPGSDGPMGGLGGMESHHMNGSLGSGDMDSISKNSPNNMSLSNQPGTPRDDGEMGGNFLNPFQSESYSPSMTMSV
UniProt Q9P0P8: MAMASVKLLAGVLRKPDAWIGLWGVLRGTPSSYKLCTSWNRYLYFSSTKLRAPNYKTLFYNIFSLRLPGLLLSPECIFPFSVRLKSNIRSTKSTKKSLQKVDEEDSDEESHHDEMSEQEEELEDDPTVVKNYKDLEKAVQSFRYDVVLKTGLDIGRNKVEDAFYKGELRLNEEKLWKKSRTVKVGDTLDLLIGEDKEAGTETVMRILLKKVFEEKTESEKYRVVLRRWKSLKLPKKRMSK
UniProt Q9BXJ9: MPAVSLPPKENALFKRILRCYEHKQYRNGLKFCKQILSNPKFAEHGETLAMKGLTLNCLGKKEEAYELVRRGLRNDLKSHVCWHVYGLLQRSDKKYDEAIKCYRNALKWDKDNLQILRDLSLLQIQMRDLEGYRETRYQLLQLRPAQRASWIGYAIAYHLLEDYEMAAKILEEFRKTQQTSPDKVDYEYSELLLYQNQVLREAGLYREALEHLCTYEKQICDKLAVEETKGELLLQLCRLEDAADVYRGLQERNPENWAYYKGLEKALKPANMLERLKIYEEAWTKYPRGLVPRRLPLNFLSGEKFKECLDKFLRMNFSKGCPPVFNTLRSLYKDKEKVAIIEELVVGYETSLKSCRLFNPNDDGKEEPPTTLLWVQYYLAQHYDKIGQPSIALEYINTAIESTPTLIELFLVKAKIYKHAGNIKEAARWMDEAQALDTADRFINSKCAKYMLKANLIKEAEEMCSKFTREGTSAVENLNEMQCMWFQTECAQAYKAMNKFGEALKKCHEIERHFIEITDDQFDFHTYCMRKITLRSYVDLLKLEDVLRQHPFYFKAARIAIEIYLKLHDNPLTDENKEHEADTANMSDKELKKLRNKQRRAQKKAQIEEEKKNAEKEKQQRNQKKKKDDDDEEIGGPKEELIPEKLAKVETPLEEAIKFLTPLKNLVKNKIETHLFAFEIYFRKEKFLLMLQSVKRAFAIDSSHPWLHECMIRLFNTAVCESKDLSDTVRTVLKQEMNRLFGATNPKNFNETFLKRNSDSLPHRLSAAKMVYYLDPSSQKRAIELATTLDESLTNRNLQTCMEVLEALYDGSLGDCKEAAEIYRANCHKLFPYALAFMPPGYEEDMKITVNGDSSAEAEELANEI
UniProt Q70IA6: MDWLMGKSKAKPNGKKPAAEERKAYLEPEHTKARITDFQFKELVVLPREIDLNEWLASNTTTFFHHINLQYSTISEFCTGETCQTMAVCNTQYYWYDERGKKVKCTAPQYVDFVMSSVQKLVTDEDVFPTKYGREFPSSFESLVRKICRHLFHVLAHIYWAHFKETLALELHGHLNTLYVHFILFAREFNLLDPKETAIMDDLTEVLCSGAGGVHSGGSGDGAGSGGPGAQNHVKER
UniProt Q5T8P6: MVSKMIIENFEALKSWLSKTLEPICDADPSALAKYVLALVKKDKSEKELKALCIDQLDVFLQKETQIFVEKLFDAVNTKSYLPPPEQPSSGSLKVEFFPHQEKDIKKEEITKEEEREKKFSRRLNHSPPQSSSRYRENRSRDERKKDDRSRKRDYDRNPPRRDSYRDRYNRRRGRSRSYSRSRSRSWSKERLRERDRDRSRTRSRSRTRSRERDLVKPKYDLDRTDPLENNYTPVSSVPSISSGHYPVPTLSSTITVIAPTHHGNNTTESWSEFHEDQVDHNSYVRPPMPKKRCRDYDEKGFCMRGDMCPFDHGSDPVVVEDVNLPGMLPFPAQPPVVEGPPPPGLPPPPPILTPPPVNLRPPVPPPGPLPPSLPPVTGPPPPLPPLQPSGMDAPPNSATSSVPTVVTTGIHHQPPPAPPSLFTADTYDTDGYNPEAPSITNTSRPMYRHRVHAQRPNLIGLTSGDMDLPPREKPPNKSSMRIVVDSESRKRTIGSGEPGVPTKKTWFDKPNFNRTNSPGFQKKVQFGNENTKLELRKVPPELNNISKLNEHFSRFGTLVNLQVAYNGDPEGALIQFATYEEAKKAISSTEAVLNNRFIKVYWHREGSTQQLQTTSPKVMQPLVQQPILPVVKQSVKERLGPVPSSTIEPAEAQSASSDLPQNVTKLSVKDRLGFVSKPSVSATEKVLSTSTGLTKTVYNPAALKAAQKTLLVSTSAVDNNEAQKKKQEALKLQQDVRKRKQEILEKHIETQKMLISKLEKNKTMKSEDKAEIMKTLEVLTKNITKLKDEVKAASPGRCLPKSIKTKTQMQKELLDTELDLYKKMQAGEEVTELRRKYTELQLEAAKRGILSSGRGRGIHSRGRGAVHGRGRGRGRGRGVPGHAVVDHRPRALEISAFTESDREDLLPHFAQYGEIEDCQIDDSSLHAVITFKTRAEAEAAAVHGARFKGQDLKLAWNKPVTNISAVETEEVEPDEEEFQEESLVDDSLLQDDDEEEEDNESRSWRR
UniProt Q7Z5L2: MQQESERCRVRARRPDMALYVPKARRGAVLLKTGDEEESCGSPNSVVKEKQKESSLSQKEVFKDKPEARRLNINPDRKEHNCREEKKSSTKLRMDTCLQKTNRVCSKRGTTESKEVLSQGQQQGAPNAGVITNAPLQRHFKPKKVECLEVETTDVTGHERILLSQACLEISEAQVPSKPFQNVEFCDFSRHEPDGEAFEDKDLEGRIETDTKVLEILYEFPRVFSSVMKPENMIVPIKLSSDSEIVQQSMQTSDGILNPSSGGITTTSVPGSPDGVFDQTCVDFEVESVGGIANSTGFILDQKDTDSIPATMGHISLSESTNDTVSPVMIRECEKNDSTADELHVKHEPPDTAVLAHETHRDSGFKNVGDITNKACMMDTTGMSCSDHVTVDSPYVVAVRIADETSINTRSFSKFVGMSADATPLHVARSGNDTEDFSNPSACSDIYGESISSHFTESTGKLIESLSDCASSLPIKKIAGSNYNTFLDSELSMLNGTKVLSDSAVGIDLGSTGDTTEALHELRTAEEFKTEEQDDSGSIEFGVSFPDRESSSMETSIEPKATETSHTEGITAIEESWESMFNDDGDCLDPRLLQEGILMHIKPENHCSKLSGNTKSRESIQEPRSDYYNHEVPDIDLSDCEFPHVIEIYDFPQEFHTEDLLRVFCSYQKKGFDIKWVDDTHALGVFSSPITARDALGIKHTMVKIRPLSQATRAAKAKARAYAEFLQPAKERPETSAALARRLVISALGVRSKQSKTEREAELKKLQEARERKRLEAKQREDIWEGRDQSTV
UniProt Q8WYA6: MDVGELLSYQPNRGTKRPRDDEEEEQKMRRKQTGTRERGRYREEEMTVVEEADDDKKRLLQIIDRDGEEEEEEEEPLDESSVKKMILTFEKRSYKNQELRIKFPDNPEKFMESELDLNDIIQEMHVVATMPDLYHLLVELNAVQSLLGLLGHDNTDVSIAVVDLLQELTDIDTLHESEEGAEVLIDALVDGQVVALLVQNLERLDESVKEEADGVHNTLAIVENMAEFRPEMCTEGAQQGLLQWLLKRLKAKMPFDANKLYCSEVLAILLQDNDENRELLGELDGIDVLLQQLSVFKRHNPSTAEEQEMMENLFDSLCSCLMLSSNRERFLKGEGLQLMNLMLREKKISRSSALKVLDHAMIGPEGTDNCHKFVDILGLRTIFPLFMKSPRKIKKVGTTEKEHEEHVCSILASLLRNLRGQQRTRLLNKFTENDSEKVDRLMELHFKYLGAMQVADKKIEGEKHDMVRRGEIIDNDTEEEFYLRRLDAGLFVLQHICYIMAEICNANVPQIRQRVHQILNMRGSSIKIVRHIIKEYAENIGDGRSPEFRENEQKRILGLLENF
UniProt Q9UHQ1: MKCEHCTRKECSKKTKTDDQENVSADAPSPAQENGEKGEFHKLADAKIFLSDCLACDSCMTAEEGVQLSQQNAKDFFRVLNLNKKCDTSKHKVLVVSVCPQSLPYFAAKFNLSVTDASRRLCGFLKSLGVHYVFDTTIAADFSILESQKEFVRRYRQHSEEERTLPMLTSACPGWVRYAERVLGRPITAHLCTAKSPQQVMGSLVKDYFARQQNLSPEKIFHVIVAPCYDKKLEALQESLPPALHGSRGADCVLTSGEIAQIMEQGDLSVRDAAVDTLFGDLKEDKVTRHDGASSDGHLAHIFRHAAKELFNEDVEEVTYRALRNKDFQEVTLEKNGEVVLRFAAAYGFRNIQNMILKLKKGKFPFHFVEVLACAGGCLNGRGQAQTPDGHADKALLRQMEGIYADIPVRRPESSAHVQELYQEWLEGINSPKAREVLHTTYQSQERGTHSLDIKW
UniProt O95218: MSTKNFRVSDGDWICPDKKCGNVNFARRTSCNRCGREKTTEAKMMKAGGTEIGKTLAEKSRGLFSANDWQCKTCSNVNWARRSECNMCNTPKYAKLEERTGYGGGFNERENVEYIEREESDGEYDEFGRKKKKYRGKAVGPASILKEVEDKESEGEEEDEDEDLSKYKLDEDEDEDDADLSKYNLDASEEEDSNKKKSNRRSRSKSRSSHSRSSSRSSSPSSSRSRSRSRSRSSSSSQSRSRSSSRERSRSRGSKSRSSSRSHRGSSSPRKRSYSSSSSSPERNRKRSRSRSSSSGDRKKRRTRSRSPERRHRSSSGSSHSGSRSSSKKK
UniProt Q15651: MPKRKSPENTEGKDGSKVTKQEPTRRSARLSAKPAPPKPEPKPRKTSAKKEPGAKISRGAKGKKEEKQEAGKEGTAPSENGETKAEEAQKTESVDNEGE
UniProt Q96T83: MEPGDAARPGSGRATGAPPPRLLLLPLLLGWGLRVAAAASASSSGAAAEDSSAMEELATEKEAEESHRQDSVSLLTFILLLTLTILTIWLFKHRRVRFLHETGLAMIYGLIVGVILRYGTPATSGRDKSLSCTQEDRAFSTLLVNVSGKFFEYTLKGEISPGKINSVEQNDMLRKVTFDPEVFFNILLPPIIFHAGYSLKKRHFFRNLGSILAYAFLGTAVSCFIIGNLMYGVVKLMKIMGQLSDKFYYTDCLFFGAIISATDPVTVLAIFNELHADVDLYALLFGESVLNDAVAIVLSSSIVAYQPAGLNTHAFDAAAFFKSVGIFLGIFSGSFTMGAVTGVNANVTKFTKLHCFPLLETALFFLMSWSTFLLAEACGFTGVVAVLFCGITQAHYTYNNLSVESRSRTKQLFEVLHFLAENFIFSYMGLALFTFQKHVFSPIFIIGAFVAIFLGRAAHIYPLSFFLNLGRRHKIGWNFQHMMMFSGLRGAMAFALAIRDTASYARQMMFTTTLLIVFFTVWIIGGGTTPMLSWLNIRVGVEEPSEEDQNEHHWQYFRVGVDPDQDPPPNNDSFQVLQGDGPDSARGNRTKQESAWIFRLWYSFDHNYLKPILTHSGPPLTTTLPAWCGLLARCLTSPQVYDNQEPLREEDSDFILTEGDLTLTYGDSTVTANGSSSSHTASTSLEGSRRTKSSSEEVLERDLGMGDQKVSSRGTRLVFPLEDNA
UniProt O75352: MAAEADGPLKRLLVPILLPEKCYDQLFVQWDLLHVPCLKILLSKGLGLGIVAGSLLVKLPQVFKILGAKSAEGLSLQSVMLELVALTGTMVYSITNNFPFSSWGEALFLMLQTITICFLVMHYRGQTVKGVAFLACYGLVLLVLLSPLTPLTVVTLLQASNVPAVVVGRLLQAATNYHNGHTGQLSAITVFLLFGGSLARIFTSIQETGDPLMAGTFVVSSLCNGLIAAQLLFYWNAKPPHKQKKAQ
UniProt Q9Y4X4: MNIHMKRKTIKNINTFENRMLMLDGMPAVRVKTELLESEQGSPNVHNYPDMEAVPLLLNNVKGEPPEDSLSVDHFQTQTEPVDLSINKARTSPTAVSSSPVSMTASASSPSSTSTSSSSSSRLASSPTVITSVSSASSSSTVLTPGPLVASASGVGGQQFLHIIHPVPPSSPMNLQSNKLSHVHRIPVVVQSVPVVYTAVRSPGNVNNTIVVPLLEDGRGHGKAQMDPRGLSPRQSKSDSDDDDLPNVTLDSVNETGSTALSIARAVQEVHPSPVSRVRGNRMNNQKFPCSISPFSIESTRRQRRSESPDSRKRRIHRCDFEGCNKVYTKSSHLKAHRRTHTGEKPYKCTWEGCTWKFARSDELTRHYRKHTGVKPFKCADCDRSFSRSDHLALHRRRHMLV

These targets were tested with Nc1ncnc2c1ncn2[C@@H]1O[C@H](COP(=O)(O)OP(=O)(O)OP(=O)(O)O)[C@@H](O)[C@H]1O [adenosine triphosphate] (assay: NP40-soluble protein abundance relative to vehicle (solubility fold change) (ratio); higher = more soluble protein in presence of ATP). Conditions: concentration: 2mM.
How it was run: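 Values are fold changes against the detergent-processed vehicle, based on vsn-normalised intensities. Jurkat crude lysate was treated at eight concentrations from 0.1 to 10 mM (10 min at room temperature, then 3 min at 37 °C), solubilised with 0.8% NP40 and benzonase, ultracentrifuged and analysed by TMT-labelled LC-MS/MS over three independent experiments.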

Target	NP40-soluble protein abundance
A0A087WYL7|G3V4A5 and related entries (UniProt O75586)	1 ± 0.027
A0A087X020|Q9Y3A5 (UniProt Q9Y3A5)	0.998 ± 0.05
A0A0D9SFE4|A0A0D9SFB1|A0A0U1RQP1|Q05193 and related entries (UniProt Q05193)	0.971 ± 0.029
A0A0B4J2F8|A6NFM0 and related entries (UniProt Q9GZM3+Q9H1A7+P52435+F6S314+E2QRJ6+A6NFM0)	0.992 ± 0.047
A0A087X159|P81877 and related entries (UniProt P81877)	0.979 ± 0.076
A0A0A0MQW0|A0A0A0MR39 (UniProt Q9P2K5)	1.05 ± 0.041
A0A087WUD1 (UniProt Q6DD87)	0.968 ± 0.014
A0A087WTU9|A0A087WZY3|Q8TCU4 and related entries (UniProt Q8TCU4)	0.841 ± 0.16
A0A0A0MSH9|Q86WJ1 and related entries (UniProt Q86WJ1)	1 ± 0.026
A0A087WZ30|A0A087X072|O94761 (UniProt O94761)	0.925 ± 0.1
A0A0A0MSJ9|Q15283 and related entries (UniProt Q15283)	1.02 ± 0.079
A0A0B4J2A0|Q9UHJ6 (UniProt Q9UHJ6)	0.984 ± 0.056
A0A087WVF4|O14646 and related entries (UniProt O14646)	1.03 ± 0.047
A0A0D9SEI0|Q9P0P8 (UniProt Q9P0P8)	0.96 ± 0.068
A0A0B4J1W3|Q9BXJ9 (UniProt Q9BXJ9)	1.02 ± 0.047
A0A0C4DG17|C9J9K3 and related entries (UniProt P08865)	0.903 ± 0.12
A0A0A0MRP6|B7ZLQ5 and related entries (UniProt P28370)	1.13 ± 0.027
A0A087WVS8|Q70IA6 and related entries (UniProt Q70IA6)	0.948 ± 0.04
A0A0C4DG44|O43464 and related entries (UniProt O43464)	1.01 ± 0.035

Target	NP40-soluble protein abundance
A0A087X0H9|Q5T8P6 and related entries (UniProt Q5T8P6)	1.224 ± 0.01
A0A087X0M0|Q7Z5L2 and related entries (UniProt Q7Z5L2)	0.938 ± 0.02
A0A087WUB9|Q8WYA6 (UniProt Q8WYA6)	1 ± 0.031
A0A088AWN8|Q9UHQ1 and related entries (UniProt Q9UHQ1)	0.949 ± 0.11
A0A0C4DG78|M0R3C6 and related entries (UniProt Q8TBC5)	0.996 ± 0.15
A0A0C4DGV5|O95218 and related entries (UniProt O95218)	0.864 ± 0.018
A0A087X0C8|O15484 and related entries (UniProt O15484)	0.993 ± 0.055
A0A087WUS0|E7ETK0 and related entries (UniProt P62847)	0.803 ± 0.1
A0A0B4J294|H3BP13 and related entries (UniProt Q9UL33)	0.969 ± 0.055
A0A0C4DH16|B8ZZS0 and related entries (UniProt Q9NYM9)	0.967 ± 0.046
A0A087WZE9|Q15651 (UniProt Q15651)	1.45 ± 0.14
A0A0C4DGS1|P39656 (UniProt P39656)	1.01 ± 0.1
A0A0C4DH01|Q9NVU0 and related entries (UniProt Q9NVU0)	1.01 ± 0.091
A0A087WXD1|Q96T83 (UniProt Q96T83)	0.949 ± 0.044
A0A0C4DFN1|Q8IWA4 (UniProt Q8IWA4)	0.991 ± 0.038
A0A087WV81|I3L295 and related entries (UniProt Q9H3L2+O75352+Q1HDL3+J3QS48+I3L1D2+J3QW43+J3QRD5+J3KT75+I3L295)	0.938 ± 0.014
A0A075B6T1|Q9C0C7 and related entries (UniProt Q9C0C7)	0.913 ± 0.084
A0A0A0MRU8|Q9Y4X4 (UniProt Q9Y4X4)	1.08 ± 0.2

Same assay, conditions: concentration: 4mM

Target	NP40-soluble protein abundance
A0A087WYL7|G3V4A5 and related entries (UniProt O75586)	0.982 ± 0.05
A0A087X020|Q9Y3A5 (UniProt Q9Y3A5)	1.02 ± 0.025
A0A0D9SFE4|A0A0D9SFB1|A0A0U1RQP1|Q05193 and related entries (UniProt Q05193)	0.969 ± 0.057
A0A0B4J2F8|A6NFM0 and related entries (UniProt Q9GZM3+Q9H1A7+P52435+F6S314+E2QRJ6+A6NFM0)	1.03 ± 0.073
A0A087X159|P81877 and related entries (UniProt P81877)	1.09 ± 0.057
A0A0A0MQW0|A0A0A0MR39 (UniProt Q9P2K5)	1.08 ± 0.047
A0A087WUD1 (UniProt Q6DD87)	0.969 ± 0.012
A0A087WTU9|A0A087WZY3|Q8TCU4 and related entries (UniProt Q8TCU4)	0.818 ± 0.046
A0A0A0MSH9|Q86WJ1 and related entries (UniProt Q86WJ1)	0.992 ± 0.021
A0A087WZ30|A0A087X072|O94761 (UniProt O94761)	0.976 ± 0.041
A0A0A0MSJ9|Q15283 and related entries (UniProt Q15283)	1.01 ± 0.084
A0A0B4J2A0|Q9UHJ6 (UniProt Q9UHJ6)	0.971 ± 0.087
A0A087WVF4|O14646 and related entries (UniProt O14646)	1.09 ± 0.05
A0A0D9SEI0|Q9P0P8 (UniProt Q9P0P8)	0.955 ± 0.11
A0A0B4J1W3|Q9BXJ9 (UniProt Q9BXJ9)	1.01 ± 0.035
A0A0C4DG17|C9J9K3 and related entries (UniProt P08865)	0.846 ± 0.11
A0A0A0MRP6|B7ZLQ5 and related entries (UniProt P28370)	1.12 ± 0.078
A0A087WVS8|Q70IA6 and related entries (UniProt Q70IA6)	0.986 ± 0.03
A0A0C4DG44|O43464 and related entries (UniProt O43464)	1.026 ± 0.0017

Target	NP40-soluble protein abundance
A0A087X0H9|Q5T8P6 and related entries (UniProt Q5T8P6)	1.2 ± 0.03
A0A087X0M0|Q7Z5L2 and related entries (UniProt Q7Z5L2)	0.961 ± 0.033
A0A087WUB9|Q8WYA6 (UniProt Q8WYA6)	1.03 ± 0.035
A0A088AWN8|Q9UHQ1 and related entries (UniProt Q9UHQ1)	0.932 ± 0.043
A0A0C4DG78|M0R3C6 and related entries (UniProt Q8TBC5)	0.93 ± 0.031
A0A0C4DGV5|O95218 and related entries (UniProt O95218)	0.768 ± 0.028
A0A087X0C8|O15484 and related entries (UniProt O15484)	1.04 ± 0.049
A0A087WUS0|E7ETK0 and related entries (UniProt P62847)	0.757 ± 0.14
A0A0B4J294|H3BP13 and related entries (UniProt Q9UL33)	0.964 ± 0.04
A0A0C4DH16|B8ZZS0 and related entries (UniProt Q9NYM9)	1.01 ± 0.028
A0A087WZE9|Q15651 (UniProt Q15651)	1.36 ± 0.23
A0A0C4DGS1|P39656 (UniProt P39656)	0.985 ± 0.081
A0A0C4DH01|Q9NVU0 and related entries (UniProt Q9NVU0)	1.06 ± 0.12
A0A087WXD1|Q96T83 (UniProt Q96T83)	0.953 ± 0.049
A0A0C4DFN1|Q8IWA4 (UniProt Q8IWA4)	0.979 ± 0.041
A0A087WV81|I3L295 and related entries (UniProt Q9H3L2+O75352+Q1HDL3+J3QS48+I3L1D2+J3QW43+J3QRD5+J3KT75+I3L295)	0.9687 ± 0.0094
A0A075B6T1|Q9C0C7 and related entries (UniProt Q9C0C7)	0.968 ± 0.06
A0A0A0MRU8|Q9Y4X4 (UniProt Q9Y4X4)	1.04 ± 0.083
